This is one part of the list.
Tests used:
Experiment in all cases: log2 fold change, soluble protein after heating vs DMSO (PISA); higher = thermal stabilisation; K562 cells, 10 uM, 30 min; active = over 0.2 and 3.5 SD of the protein, either way, in both replicates (recomputed)
[1] = compound: C1=CC=C(C=C1)[C@H](COC2=CC3=C(C=C2)NC(=O)N3)NC(=O)C4=CC=CN(C4=O)CC5=CC(=C(C=C5)F)F
Summary of the method: (§1)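 K562 cells (2×10^6 cells/mL) were treated with 10 μM compound for 30 min, and aliquots were heated for 3 min over 48°C-58°C. Pooled aliquots were extracted in PBS with 0.5% NP-40 at 4°C, and the supernatant after 21,000xg for 90 min was measured by TMTpro 16plex LC-MS/MS with channel sums equalised. Reported thermal stability, relative to control samples and from duplicates, is a log2 fold change.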

Chains of the proteins cited; added tags and fusions are not shown. Lines headed by an entry give the natural chain unless they say otherwise; changes in a name come on top.
UniProt O43715: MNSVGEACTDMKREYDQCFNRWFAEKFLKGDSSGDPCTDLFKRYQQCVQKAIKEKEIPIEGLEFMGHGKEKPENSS
UniProt P55327: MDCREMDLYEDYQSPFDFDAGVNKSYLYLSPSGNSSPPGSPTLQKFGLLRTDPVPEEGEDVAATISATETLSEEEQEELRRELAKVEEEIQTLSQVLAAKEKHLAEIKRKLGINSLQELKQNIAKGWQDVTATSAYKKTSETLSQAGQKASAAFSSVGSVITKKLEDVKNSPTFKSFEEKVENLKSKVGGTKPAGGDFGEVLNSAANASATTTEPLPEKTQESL
UniProt Q9UKE5: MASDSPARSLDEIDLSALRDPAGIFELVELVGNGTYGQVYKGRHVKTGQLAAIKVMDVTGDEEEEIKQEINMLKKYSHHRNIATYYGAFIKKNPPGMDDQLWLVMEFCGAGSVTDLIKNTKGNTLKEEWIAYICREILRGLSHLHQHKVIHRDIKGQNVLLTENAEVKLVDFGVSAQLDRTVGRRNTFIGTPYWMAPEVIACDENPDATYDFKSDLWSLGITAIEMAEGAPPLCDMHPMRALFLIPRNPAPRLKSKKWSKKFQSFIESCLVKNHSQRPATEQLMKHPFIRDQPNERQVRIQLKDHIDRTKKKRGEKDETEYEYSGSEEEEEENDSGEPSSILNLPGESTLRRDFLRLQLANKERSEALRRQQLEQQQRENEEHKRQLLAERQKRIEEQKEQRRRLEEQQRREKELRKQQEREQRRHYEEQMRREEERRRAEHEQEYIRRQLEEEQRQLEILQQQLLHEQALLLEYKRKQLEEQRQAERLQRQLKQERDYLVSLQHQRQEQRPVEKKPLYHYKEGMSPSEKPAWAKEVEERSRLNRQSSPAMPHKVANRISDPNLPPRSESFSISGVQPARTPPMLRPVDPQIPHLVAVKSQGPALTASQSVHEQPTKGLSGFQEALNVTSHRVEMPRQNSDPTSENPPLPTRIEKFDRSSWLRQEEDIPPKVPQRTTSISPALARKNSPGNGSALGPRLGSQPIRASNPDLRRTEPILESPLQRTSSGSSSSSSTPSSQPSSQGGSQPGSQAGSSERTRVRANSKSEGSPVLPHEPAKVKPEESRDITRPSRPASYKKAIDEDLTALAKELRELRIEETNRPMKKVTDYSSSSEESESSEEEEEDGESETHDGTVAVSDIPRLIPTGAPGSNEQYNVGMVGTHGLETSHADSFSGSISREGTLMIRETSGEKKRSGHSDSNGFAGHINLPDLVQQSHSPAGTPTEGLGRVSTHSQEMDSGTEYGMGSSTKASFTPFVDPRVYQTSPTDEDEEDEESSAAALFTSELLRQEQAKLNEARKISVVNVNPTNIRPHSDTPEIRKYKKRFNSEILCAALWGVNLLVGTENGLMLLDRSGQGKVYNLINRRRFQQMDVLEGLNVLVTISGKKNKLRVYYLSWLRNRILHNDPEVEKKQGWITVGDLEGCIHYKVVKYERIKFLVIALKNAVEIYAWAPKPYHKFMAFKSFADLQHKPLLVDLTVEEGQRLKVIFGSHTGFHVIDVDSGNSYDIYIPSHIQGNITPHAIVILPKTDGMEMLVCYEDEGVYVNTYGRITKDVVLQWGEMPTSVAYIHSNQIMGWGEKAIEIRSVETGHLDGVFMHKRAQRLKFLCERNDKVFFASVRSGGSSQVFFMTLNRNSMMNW
UniProt Q15642: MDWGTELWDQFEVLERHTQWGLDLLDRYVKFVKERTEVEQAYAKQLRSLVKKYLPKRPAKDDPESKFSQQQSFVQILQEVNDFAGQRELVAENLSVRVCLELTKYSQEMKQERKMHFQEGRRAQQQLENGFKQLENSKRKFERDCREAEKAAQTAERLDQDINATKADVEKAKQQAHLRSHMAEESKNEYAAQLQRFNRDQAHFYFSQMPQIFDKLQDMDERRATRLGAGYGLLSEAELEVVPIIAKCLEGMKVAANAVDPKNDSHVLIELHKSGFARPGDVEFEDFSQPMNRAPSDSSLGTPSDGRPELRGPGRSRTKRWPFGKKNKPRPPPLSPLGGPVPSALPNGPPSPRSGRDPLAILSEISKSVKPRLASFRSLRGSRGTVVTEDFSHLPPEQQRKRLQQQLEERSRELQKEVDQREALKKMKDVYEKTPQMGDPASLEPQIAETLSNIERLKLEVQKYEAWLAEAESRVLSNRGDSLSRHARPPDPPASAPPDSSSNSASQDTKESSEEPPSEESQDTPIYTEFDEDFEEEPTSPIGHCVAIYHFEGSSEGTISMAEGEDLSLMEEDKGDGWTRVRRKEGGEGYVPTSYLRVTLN
UniProt Q9UJA5: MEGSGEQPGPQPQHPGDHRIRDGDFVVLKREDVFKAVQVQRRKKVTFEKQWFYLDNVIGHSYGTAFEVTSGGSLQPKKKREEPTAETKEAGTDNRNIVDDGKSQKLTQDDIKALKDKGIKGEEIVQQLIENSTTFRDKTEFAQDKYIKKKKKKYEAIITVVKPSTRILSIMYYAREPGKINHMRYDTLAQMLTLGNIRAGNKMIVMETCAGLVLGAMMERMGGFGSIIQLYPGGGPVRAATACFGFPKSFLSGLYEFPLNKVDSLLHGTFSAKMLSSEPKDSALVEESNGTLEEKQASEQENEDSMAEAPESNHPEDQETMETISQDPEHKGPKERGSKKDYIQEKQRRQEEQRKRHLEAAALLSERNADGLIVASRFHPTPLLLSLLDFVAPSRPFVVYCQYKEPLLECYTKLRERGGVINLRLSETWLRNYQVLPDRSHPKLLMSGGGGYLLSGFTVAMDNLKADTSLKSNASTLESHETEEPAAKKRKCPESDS
UniProt O14773: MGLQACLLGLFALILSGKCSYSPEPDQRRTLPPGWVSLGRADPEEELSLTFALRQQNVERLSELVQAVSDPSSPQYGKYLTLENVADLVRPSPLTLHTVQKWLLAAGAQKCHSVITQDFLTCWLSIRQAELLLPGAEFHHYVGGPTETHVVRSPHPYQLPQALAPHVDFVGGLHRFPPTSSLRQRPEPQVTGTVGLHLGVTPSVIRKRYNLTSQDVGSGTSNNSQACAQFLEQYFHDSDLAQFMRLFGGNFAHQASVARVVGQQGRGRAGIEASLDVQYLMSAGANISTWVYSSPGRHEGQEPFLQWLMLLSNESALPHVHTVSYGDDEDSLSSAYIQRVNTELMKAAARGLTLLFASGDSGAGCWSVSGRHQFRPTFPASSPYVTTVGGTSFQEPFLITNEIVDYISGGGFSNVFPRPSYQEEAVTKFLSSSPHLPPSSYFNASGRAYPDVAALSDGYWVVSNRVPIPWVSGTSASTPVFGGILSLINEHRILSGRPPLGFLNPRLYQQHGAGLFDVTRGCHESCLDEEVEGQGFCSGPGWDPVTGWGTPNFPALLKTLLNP
UniProt Q96FX7: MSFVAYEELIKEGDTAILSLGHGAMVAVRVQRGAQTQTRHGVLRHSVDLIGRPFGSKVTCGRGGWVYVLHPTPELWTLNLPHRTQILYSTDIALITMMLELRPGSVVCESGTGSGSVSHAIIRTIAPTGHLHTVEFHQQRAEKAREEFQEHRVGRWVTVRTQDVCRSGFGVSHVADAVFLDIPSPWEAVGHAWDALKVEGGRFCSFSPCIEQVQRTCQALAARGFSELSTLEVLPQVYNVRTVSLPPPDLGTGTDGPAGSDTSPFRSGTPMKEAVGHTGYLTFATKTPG
UniProt Q9NS69: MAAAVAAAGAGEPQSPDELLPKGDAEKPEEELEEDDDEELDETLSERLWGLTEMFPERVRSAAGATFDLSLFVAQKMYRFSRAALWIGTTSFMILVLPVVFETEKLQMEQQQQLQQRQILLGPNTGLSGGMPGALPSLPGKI
UniProt Q13263: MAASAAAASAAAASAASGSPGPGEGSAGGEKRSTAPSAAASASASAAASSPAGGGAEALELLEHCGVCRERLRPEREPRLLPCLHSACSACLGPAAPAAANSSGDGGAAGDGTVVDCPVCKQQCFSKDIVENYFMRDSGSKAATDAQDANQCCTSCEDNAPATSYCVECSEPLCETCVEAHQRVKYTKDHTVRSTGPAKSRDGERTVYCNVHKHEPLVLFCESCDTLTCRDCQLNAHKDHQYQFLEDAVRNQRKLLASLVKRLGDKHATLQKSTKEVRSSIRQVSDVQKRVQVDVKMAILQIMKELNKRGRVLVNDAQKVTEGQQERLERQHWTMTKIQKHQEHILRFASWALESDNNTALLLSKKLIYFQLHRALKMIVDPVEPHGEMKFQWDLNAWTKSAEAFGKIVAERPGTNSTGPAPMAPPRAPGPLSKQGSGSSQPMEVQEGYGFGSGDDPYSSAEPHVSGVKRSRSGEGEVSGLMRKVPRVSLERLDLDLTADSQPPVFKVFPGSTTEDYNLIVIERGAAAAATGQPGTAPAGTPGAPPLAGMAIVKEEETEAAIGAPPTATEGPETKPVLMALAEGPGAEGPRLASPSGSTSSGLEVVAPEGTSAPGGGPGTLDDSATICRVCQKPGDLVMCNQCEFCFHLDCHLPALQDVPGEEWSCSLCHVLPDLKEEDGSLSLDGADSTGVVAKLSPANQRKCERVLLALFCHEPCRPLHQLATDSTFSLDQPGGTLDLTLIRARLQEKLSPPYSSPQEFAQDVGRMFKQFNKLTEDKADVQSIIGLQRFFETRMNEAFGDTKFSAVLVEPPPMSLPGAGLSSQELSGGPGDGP

[2] = compound: CC1=C(SC2=C1C(=N[C@H](C3=NN=C(N32)C)CC(=O)N)C4=CC=C(C=C4)Cl)C
Summary of the method: as §1

[3] = compound: CC1=C2C(=CC=C1)N=C(N(C2=O)C3=CC=CC=C3C)CN4C=NC5=C(N=CN=C54)N
Summary of the method: as §1

[4] = compound: Cc1sc2c(c1C)C(c1ccc(Cl)cc1)=N[C@@H](CC(=O)OC(C)(C)C)c1nnc(C)n1-2
Summary of the method: as §1

[5] = compound: c1ccc([C@@H]2C[C@H]2NC2CCNCC2)cc1
Summary of the method: as §1

Measured: log2 fold change

TRIAP1 (UniProt O43715)
inactive: [1] 0.07 | [2] 0.154 | [3] 0.061 | [4] -0.05 | [5] 0.01

TPD52 isoform 3 (UniProt P55327)
inactive: [1] -0.024

TNIK isoform 6 (UniProt Q9UKE5)
inactive: [1] -0.025 | [2] 0.025 | [3] 0.018 | [4] 0.013 | [5] -0.053

TRIP10 isoform 2 (UniProt Q15642)
inactive: [1] -0.039 | [2] 0.085 | [3] 0.222 | [4] 0.03 | [5] -0.026

TRMT6 (UniProt Q9UJA5)
inactive: [1] 0.089 | [2] -0.054 | [3] -0.171 | [4] 0.188 | [5] 0.07

TPP1 (UniProt O14773)
inactive: [1] 0.019 | [2] 0.048 | [3] -0.02 | [4] 0.036 | [5] -0.067

TRMT61A (UniProt Q96FX7)
inactive: [1] 0.157 | [2] -0.033 | [3] -0.051 | [4] 0.141 | [5] -0.049

TOMM22 (UniProt Q9NS69)
inactive: [1] -0.023 | [2] 0.054 | [3] -0.021 | [4] -0.054 | [5] 0.009

TRIM28 (UniProt Q13263)
inactive: [1] -0.029 | [2] 0.029 | [3] 0.017 | [4] -0.012 | [5] 0.009

Copied from above (2 entries):
TPD52 isoform 3 (UniProt P55327)
inactive: [1] -0.024

TNIK isoform 6 (UniProt Q9UKE5)
inactive: [1] -0.025 | [2] 0.025 | [3] 0.018 | [4] 0.013 | [5] -0.053

From the supplement of paper PMC10849652
